According to patent US8021686B2, “Lipid-encapsulated polyanionic nucleic acid” (The University of British Columbia, priority 1997, dated 2011):
Some of these results come from one statement about several compounds together.

Assay: Assessment of antisense encapsulation (encapsulation efficiency, drug:lipid ratio)
Assay type: physicochemical
Experimental: drug to lipid ratio: The amount of drug (therapeutic agent) in a defined volume of preparation divided by the amount of lipid in the same volume. This may be on a mole per mole basis or on a weight per weight basis, or on a weight per mole basis. For final, administration-ready formulations, the drug:lipid ratio is calculated after dialysis, chromatography and/or enzyme (e.g., nuclease) digestion has been employed to remove as much of the external therapeutic agent (e.g., nucleic acid) as possible.
encapsulation efficiency: the drug to lipid ratio of the starting mixture divided by the drug to lipid ratio of the final, administration competent formulation. This is a measure of relative efficiency. For a measure of absolute efficiency, the total amount of therapeutic agent (nucleic acid) added to the starting mixture that ends up in the administration competent formulation, can also be calculated. The amount of lipid lost during the formulation process may also be calculated. […]
Antisense encapsulation was typically assessed by dual label ([^3H]-antisense and [^14C]-lipid) liquid scintillation counting after gel filtration chromatography to separate the free and encapsulated antisense. Antisense encapsulation was evaluated by summing the total [^3H]-antisense radioactivity associated with the lipid peak and dividing by the total [^3H]-antisense radioactivity. […]

Question: Which Encapsulation efficiency (10-50 mM citrate range, pH 3.80, DSPC:CHOL:DODAP:PEG-CerC14 25:45:20:10) does the source give for “PO-2302: human ICAM-1 phosphodiester antisense GCCCAAGCTGGCATCCGTCA (SEQ ID No 2) (DNA, all phosphodiester, methylation of C not given here)” here?
Answer: over 50%

Question: What about the “encapsulation efficiencies (amount of nucleic acid that ends up on the inside of the particle)” value (FIG. 15) of the same substance?
Answer: greater than 50%
